Data as given in PubChem BioAssay AID743121 (NCATS, 2013)
This is a random part of about 26,000 reagents. Over the whole deposit, 167 (0.63%) got an active call. 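Calls are per gene from RSA p-values that are not deposited; an individual active-marked siRNA can sensitise only weakly.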 A number with no mark means an inactive call. Reagents against one gene are numbered here. Further read-outs or replicates are left out here. No sequences are given here.

Aim: 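Knock-downs that sensitise breast cancer cells to camptothecin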 (primary screen)
Cells: MDA-MB-231 cells, a human breast cancer line
Knock-down reagent: single siRNA against human genes, 20 nM siRNA (0.8 pmol per well)
Duration: 120 h (drug added 48 h after transfection, read 72 h later)
Treatment: camptothecin 20 nM (about EC30) for 72 h; vehicle 0.1% DMSO in parallel plates
Read-out: 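Cell viability by ATP luminescence (CellTiter-Glo) as % of non-targeting siRNA wells, and the log2 ratio of viability without drug over viability with camptothecin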
Reading the numbers: log2 vehicle/camptothecin viability: higher = stronger sensitisation to camptothecin; viability with camptothecin: higher = more viable cells
Units: viability with camptothecin in % of control
Hit rule: 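Each gene scored by redundant siRNA activity (RSA) over its individual siRNA ratios; a gene is called active at p < 0.001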

KIF3C #1 → log2 vehicle/camptothecin viability: 0.289; viability with camptothecin: 74
KIF3C #2 → log2 vehicle/camptothecin viability: 1.22; viability with camptothecin: 32.8
KIF3C #3 → log2 vehicle/camptothecin viability: -0.25; viability with camptothecin: 78.7
KIF3C #4 → log2 vehicle/camptothecin viability: -0.167; viability with camptothecin: 88
MECR #1 → log2 vehicle/camptothecin viability: -0.349; viability with camptothecin: 74.7
MECR #2 → log2 vehicle/camptothecin viability: -0.406; viability with camptothecin: 75.2
MECR #3 → log2 vehicle/camptothecin viability: -0.394; viability with camptothecin: 93.9
MECR #4 → log2 vehicle/camptothecin viability: -0.127; viability with camptothecin: 73.3
KLC1 #1 → log2 vehicle/camptothecin viability: 0.237; viability with camptothecin: 78
KLC1 #2 → log2 vehicle/camptothecin viability: -0.417; viability with camptothecin: 61.7
KLC1 #3 → log2 vehicle/camptothecin viability: 0.853; viability with camptothecin: 25.8
KLC1 #4 → log2 vehicle/camptothecin viability: -0.397; viability with camptothecin: 103
ETFBKMT #1 → log2 vehicle/camptothecin viability: 0.105; viability with camptothecin: 23.3
ETFBKMT #2 → log2 vehicle/camptothecin viability: -0.112; viability with camptothecin: 114
ETFBKMT #3 → log2 vehicle/camptothecin viability: 0.237; viability with camptothecin: 15.6
ETFBKMT #4 → log2 vehicle/camptothecin viability: -0.317; viability with camptothecin: 116
C1QTNF1 #1 → log2 vehicle/camptothecin viability: -0.496; viability with camptothecin: 72.6
C1QTNF1 #2 → log2 vehicle/camptothecin viability: -0.807; viability with camptothecin: 60.7
C1QTNF1 #3 → log2 vehicle/camptothecin viability: -0.369; viability with camptothecin: 56.5
C1QTNF1 #4 → log2 vehicle/camptothecin viability: 0.047; viability with camptothecin: 50.3

The list goes on (5 carried over from the part before).
ETFBKMT #4 → log2 vehicle/camptothecin viability: -0.317; viability with camptothecin: 116
C1QTNF1 #1 → log2 vehicle/camptothecin viability: -0.496; viability with camptothecin: 72.6
C1QTNF1 #2 → log2 vehicle/camptothecin viability: -0.807; viability with camptothecin: 60.7
C1QTNF1 #3 → log2 vehicle/camptothecin viability: -0.369; viability with camptothecin: 56.5
C1QTNF1 #4 → log2 vehicle/camptothecin viability: 0.047; viability with camptothecin: 50.3
IL17RC #1 → log2 vehicle/camptothecin viability: -0.0539; viability with camptothecin: 92.3
IL17RC #2 → log2 vehicle/camptothecin viability: -0.18; viability with camptothecin: 63.1
IL17RC #3 → log2 vehicle/camptothecin viability: 0.347; viability with camptothecin: 53.3
IL17RC #4 → log2 vehicle/camptothecin viability: 0.709; viability with camptothecin: 42.4
PVR #1 → log2 vehicle/camptothecin viability: -0.383; viability with camptothecin: 92.4
PVR #2 → log2 vehicle/camptothecin viability: 0.79; viability with camptothecin: 34.4
PVR #3 → log2 vehicle/camptothecin viability: -0.0392; viability with camptothecin: 92.7
PVR #4 → log2 vehicle/camptothecin viability: -0.322; viability with camptothecin: 44.9
CMYA5 #1 → log2 vehicle/camptothecin viability: -0.434; viability with camptothecin: 89.7
CMYA5 #2 → log2 vehicle/camptothecin viability: 0.901; viability with camptothecin: 57.2
CMYA5 #3 → log2 vehicle/camptothecin viability: 0.00769; viability with camptothecin: 80.5
CMYA5 #4 → log2 vehicle/camptothecin viability: 0.0611; viability with camptothecin: 80.8
UBOX5 #1 → log2 vehicle/camptothecin viability: -0.0506; viability with camptothecin: 35.1
UBOX5 #2 → log2 vehicle/camptothecin viability: -0.0482; viability with camptothecin: 41.4
UBOX5 #3 → log2 vehicle/camptothecin viability: -0.0849; viability with camptothecin: 38.2
UBOX5 #4 → log2 vehicle/camptothecin viability: -0.000828; viability with camptothecin: 90.3
OR2T12 → log2 vehicle/camptothecin viability: -0.495; viability with camptothecin: 121
LPAR6 #1 → log2 vehicle/camptothecin viability: -0.357; viability with camptothecin: 77.7
LPAR6 #2 → log2 vehicle/camptothecin viability: 0.544; viability with camptothecin: 34.6
LPAR6 #3 → log2 vehicle/camptothecin viability: 0.25; viability with camptothecin: 56.7
LPAR6 #4 → log2 vehicle/camptothecin viability: -0.102; viability with camptothecin: 63.5
ENPP1 #1 → log2 vehicle/camptothecin viability: -0.565; viability with camptothecin: 79.9
ENPP1 #2 → log2 vehicle/camptothecin viability: 0.27; viability with camptothecin: 38.7
ENPP1 #3 → log2 vehicle/camptothecin viability: 0.106; viability with camptothecin: 89.6
ENPP1 #4 → log2 vehicle/camptothecin viability: 0.562; viability with camptothecin: 50.8
